# Values of other authors, collected in patent US20240343821A1, “OFATUMUMAB FOR TREATING PEDIATRIC MS” (NOVARTIS AG, priority 2021, published 2024).
# For at least one compound, name, drawing or mass did not settle the structure.
# Details: cited from earlier work
structure (smiles),measurement,setting,value
CCCCCCCCc1ccc(CCC(N)(CO)CO)cc1 [fingolimod],annualized relapse rate (ARR) (i.e. the number of MS relapses per year),"PARADIGMS study, pediatric MS participants",0.122
same,number of MS relapses experienced,"PARADIGMS, 163 participant-years of exposure (IFN beta-1a), 180 participant-years (fingolimod)",25
same,reduction in ARR over IFN beta-1a,"PARADIGMS, p<0.001",81.9%
same,ARR ratio (fingolimod/interferon),"PARADIGMS, with 95% CI",0.18 (95% CI: 0.11; 0.30)
same,efficacy on disease activity versus interferon beta-1a,based on PARADIGMS,superior efficacy
